The values that follow come from the supplement of paper PMC10849652.

Protein sequences, listed by entry. Tags and fused reporters are not part of them. Lines headed by an entry give the natural chain unless they say otherwise; changes in a name come on top.
UniProt Q8WTV0: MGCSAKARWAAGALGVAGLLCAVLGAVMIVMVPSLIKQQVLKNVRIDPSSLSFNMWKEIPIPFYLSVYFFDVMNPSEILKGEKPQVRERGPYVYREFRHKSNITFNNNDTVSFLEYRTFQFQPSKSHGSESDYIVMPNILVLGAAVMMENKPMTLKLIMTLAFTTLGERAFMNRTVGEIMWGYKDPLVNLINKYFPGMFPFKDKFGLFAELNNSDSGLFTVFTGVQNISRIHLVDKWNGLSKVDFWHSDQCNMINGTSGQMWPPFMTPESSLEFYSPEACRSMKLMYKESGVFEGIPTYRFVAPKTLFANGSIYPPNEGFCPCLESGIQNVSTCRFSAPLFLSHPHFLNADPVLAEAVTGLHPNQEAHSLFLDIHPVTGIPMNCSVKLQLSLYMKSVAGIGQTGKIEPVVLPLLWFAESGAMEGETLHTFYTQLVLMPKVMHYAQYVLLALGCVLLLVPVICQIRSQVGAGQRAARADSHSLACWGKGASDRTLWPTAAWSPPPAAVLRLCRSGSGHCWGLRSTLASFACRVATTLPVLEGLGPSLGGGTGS
UniProt O75880: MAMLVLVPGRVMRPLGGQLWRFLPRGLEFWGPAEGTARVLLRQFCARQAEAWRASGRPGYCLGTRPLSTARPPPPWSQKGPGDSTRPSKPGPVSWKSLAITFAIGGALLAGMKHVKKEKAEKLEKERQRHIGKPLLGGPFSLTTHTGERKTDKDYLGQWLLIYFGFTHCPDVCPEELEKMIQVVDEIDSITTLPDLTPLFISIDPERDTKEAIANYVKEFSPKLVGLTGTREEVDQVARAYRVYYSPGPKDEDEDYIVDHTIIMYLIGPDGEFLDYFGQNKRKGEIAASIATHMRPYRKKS
UniProt Q96KG9: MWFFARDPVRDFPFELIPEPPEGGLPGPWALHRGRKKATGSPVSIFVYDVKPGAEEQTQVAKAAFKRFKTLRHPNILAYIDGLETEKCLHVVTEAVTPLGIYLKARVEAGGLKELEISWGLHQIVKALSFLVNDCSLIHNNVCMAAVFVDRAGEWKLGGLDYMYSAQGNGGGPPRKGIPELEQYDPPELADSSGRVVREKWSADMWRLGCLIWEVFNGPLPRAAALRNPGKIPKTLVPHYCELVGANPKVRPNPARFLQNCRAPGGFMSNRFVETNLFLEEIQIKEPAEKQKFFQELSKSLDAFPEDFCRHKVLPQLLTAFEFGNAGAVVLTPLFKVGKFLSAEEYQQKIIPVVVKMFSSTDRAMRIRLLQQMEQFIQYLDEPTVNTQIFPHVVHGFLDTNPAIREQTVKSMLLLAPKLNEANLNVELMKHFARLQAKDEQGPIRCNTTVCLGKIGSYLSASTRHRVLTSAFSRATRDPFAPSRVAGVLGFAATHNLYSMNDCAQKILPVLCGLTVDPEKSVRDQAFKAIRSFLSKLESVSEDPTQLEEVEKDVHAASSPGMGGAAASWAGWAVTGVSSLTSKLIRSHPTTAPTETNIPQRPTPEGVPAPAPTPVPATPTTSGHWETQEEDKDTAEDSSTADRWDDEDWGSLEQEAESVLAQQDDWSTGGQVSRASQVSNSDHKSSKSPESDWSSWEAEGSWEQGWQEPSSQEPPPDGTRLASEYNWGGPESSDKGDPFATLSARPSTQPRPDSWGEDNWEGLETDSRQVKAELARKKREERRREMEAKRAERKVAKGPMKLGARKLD
UniProt Q6PCB5: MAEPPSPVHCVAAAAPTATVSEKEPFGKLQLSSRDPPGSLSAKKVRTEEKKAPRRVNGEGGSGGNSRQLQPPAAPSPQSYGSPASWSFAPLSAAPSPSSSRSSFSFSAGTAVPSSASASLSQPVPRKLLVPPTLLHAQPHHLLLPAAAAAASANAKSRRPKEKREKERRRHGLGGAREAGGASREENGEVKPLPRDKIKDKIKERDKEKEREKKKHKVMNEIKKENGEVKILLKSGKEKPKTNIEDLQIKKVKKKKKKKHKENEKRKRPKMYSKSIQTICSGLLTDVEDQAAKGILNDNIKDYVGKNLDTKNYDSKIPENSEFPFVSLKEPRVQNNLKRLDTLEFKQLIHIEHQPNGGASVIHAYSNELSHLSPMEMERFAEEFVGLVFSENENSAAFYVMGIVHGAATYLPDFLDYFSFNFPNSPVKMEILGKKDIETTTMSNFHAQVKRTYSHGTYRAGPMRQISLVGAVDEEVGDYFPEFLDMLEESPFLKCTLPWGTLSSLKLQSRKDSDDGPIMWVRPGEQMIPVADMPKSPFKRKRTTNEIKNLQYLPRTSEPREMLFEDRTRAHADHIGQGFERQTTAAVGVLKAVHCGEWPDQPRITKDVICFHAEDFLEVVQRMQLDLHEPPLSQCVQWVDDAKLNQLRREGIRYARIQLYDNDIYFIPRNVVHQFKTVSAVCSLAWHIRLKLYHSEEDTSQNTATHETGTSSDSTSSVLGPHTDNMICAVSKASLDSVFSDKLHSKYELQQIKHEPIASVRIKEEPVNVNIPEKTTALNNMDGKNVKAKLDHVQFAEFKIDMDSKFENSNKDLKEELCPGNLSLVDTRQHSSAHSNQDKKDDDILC
UniProt Q9Y265, whole entry, looked up: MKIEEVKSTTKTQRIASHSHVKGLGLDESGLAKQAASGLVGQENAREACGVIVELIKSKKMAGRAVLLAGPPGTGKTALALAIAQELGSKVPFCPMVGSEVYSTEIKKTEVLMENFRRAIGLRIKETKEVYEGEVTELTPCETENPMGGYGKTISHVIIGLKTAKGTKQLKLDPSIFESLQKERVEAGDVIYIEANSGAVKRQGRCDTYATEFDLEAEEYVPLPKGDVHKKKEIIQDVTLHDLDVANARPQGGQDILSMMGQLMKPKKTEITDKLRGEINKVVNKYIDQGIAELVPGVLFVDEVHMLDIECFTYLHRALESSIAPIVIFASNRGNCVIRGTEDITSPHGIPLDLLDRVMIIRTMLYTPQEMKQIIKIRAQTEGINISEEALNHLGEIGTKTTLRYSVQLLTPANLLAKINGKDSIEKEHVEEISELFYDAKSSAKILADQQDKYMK
UniProt Q969E2: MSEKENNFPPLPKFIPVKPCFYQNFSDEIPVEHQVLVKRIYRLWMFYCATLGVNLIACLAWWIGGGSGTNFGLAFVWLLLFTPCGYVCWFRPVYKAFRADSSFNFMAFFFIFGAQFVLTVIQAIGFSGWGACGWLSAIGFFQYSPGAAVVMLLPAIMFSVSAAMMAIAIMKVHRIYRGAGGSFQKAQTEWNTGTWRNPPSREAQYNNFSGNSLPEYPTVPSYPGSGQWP
UniProt Q14108: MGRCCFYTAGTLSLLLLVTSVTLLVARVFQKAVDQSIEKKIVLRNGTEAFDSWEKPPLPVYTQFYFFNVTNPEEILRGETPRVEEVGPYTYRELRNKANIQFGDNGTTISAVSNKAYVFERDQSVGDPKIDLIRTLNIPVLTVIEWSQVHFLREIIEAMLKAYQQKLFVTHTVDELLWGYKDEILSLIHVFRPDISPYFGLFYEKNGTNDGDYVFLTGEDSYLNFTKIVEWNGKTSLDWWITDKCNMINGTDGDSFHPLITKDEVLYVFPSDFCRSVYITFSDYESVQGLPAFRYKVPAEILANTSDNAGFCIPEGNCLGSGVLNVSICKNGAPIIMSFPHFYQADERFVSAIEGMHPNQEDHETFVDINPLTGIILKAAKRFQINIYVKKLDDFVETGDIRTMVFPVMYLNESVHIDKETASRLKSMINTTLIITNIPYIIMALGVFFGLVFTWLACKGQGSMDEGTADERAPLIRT
UniProt Q12770: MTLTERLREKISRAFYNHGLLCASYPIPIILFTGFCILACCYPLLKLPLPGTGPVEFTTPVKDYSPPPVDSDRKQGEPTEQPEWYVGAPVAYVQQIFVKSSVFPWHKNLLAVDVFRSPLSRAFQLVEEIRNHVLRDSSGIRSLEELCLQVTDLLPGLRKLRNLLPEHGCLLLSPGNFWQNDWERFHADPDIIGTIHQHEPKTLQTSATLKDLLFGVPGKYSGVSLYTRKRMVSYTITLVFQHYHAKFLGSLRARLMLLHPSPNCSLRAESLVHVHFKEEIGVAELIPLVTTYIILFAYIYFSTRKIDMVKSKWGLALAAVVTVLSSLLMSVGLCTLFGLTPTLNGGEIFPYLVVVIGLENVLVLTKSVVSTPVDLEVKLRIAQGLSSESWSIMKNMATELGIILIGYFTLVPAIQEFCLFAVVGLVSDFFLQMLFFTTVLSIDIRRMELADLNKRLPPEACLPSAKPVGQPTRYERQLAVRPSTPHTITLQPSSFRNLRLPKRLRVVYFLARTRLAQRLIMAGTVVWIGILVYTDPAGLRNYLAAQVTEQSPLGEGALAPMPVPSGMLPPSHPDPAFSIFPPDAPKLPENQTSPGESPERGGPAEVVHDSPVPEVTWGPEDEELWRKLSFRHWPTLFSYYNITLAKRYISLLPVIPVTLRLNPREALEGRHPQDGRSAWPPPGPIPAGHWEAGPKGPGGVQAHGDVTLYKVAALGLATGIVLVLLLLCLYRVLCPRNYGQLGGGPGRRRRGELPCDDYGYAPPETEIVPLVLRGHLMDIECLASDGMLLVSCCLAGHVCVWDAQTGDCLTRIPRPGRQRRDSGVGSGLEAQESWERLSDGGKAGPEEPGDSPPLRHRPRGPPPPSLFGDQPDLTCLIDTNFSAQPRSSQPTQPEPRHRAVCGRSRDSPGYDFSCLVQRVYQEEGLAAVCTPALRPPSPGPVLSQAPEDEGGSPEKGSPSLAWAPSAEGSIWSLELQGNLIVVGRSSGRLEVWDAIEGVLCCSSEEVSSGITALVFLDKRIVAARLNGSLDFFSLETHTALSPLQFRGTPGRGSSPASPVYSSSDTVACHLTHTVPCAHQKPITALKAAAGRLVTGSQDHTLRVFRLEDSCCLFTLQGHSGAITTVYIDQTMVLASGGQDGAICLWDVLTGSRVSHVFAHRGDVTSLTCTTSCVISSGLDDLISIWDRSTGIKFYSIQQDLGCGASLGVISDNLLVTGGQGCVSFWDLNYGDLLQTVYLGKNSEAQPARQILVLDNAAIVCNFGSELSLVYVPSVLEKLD
UniProt O94855: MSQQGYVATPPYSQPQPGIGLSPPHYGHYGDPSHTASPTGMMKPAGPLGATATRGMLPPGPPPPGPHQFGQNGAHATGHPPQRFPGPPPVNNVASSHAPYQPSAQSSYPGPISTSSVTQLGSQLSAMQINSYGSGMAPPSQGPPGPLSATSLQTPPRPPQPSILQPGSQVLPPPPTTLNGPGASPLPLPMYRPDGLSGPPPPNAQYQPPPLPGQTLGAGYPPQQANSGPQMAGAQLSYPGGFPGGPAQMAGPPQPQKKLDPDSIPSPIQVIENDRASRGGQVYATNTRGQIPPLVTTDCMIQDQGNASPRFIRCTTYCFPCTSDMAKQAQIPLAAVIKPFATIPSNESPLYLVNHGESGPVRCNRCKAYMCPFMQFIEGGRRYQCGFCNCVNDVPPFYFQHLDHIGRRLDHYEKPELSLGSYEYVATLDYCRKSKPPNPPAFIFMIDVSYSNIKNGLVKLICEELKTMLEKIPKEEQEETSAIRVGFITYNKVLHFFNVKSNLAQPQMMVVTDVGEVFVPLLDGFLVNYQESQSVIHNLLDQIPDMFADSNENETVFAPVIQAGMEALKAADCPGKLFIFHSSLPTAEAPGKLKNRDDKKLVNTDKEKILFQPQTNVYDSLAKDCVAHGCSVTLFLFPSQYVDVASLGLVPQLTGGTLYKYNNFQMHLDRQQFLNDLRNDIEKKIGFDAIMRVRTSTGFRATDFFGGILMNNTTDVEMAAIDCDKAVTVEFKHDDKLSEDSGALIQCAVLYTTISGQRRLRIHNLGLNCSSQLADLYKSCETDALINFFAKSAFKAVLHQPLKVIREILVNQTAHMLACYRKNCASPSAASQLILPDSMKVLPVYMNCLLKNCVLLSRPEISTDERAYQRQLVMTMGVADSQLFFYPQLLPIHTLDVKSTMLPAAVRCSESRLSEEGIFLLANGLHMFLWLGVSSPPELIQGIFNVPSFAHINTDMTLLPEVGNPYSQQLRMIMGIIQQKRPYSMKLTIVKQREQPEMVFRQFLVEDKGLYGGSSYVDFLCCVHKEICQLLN
UniProt Q9NR31: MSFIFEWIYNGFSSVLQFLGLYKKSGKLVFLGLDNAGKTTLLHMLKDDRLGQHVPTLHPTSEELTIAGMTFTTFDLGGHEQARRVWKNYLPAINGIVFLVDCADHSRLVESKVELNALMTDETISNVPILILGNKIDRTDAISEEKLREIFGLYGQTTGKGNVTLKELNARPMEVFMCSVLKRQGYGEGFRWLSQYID
UniProt P31949: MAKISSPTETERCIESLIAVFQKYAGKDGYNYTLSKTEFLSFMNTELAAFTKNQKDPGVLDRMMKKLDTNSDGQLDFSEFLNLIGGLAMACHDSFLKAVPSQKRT
UniProt Q9UHR5: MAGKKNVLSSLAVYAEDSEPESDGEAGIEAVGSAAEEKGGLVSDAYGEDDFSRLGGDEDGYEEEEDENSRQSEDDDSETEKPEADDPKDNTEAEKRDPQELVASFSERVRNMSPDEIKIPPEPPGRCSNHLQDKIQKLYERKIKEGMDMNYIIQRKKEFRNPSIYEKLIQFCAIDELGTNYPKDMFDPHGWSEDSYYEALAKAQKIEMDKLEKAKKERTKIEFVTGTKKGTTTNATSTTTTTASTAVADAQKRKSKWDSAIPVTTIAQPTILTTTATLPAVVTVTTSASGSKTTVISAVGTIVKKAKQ

This is one part of the list.

Compound in one assay: Cc1nc(Nc2n[nH]c3c2CN(C(=O)N[C@H](CN(C)C)c2ccccc2)C3(C)C)c2sccc2n1
As to the kind of experiment: log2 fold change, soluble protein after heating vs DMSO (PISA); higher = thermal stabilisation; K562 cells, 10 uM, 30 min; active = over 0.2 and 3.5 SD of the protein, either way, in both replicates (recomputed). Summed up:
(§1)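 For each measurement, 10 μM compound was applied for 30 min to K562 cells at 2×10^6 cells/mL. Aliquots were heated for 3 min across 48°C-58°C, pooled, and extracted in PBS with 0.5% NP-40 at 4°C; the supernatant after 21,000xg for 90 min was soluble protein. This was quantified by TMTpro 16plex LC-MS/MS with channel sums equalised, and thermal stability was reported relative to control samples from duplicates, on a log2 fold-change scale.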
As to SCFD2 (UniProt Q8WU76), the log2 fold change is inactive: -0.004.
The same measure, in the same setting: then SCARB1 isoform 2 (UniProt Q8WTV0), with inactive: 0.029.
On the same count and under the same terms, then RWDD1 (UniProt Q9H446), with inactive: -0.073.
Still for that read-out and setting: the same measure for SCIN (UniProt Q9Y6U3): inactive: -0.069; for SDF4 (UniProt Q9BRK5): inactive: -0.001; for RYBP (UniProt Q8N488): inactive: -0.095.
As for SCO1 (UniProt O75880), the log2 fold change was inactive: 0.03.
On the same count and under the same terms, the same measure for SACS (UniProt Q9NZJ4): inactive: 0.109; for RTRAF (UniProt Q9Y224): inactive: 0.045; for SCYL1 (UniProt Q96KG9): inactive: -0.04.
Same read-out and setting: the same measure for S100A6 (UniProt P06703): inactive: 0.005; for SDHA (UniProt P31040): inactive: 0.003; for RSBN1L (UniProt Q6PCB5): inactive: 0.241.
For the target RUVBL1 (UniProt Q9Y265), the log2 fold change was inactive: 0.104.
On the same count and under the same terms, the same measure for SDHAF3 (UniProt Q9NRP4): inactive: 0.042; for SBNO1 (UniProt A3KN83): inactive: 0.013.
On to SCLY (UniProt Q96I15), for which the log2 fold change is inactive: 0.015.
As for S100P (UniProt P25815), the log2 fold change was inactive: 0.045.
On the same count and under the same terms, then SCP2 (UniProt P22307), with inactive: 0.026; and SCAMP4 (UniProt Q969E2), with inactive: 0.004; and SCARB2 (UniProt Q14108), with inactive: 0.018.
In the case of SCAP (UniProt Q12770), the log2 fold change was inactive: 0.08.
Still for that read-out and setting: then SEC24D isoform 2 (UniProt O94855), with inactive: -0.001; and RRP15 (UniProt Q9Y3B9), with inactive: -0.039.
With SBF1 isoform 4 (UniProt O95248), the log2 fold change was inactive: 0.041.
On the same count and under the same terms, the same measure for SARG (UniProt Q9BW04): inactive: 0.045.
As for SAR1A (UniProt Q9NR31), the log2 fold change was inactive: 0.021.
Same read-out and setting: then S100A11 (UniProt P31949), with inactive: 0; and SAP30BP (UniProt Q9UHR5), with inactive: -0.029.
On the same count and under the same terms, the same measure for SAR1B (UniProt Q9Y6B6): inactive: 0.036.

Compound in another assay: Cc1nc(Nc2ncc(C(=O)Nc3c(C)cccc3Cl)s2)cc(N2CCN(CCO)CC2)n1 [dasatinib]
Described as above. Summed up:
as §1
On to SCFD2 (UniProt Q8WU76), for which the log2 fold change is inactive: -0.028.
For the target SCARB1 isoform 2 (UniProt Q8WTV0), the log2 fold change was inactive: 0.008.
The same measure, in the same setting: then RWDD1 (UniProt Q9H446), with inactive: 0.004.
Same read-out and setting: the same measure for SCIN (UniProt Q9Y6U3): inactive: -0.092; for SDF4 (UniProt Q9BRK5): inactive: 0.08.
The same measure, in the same setting: the same measure for RYBP (UniProt Q8N488): inactive: 0.119; for SCO1 (UniProt O75880): inactive: -0.041; for SACS (UniProt Q9NZJ4): inactive: -0.012.
Consider RTRAF (UniProt Q9Y224), for which the log2 fold change is inactive: 0.005.
The same measure, in the same setting: then SCYL1 (UniProt Q96KG9), with inactive: -0.056.
For S100A6 (UniProt P06703), the log2 fold change is inactive: 0.055.
Same read-out and setting: the same measure for SDHA (UniProt P31040): inactive: 0.038.
On the same count and under the same terms, then RSBN1L (UniProt Q6PCB5), with inactive: 0.284; and RUVBL1 (UniProt Q9Y265), with inactive: 0.039.
Take SDHAF3 (UniProt Q9NRP4): the log2 fold change is inactive: -0.089.
On the same count and under the same terms, the same measure for SBNO1 (UniProt A3KN83): inactive: -0.068; for SCLY (UniProt Q96I15): inactive: 0.035.
Same read-out and setting: then S100P (UniProt P25815), with inactive: 0.046.
Still for that read-out and setting: the same measure for SCP2 (UniProt P22307): inactive: 0.022; for SCAMP4 (UniProt Q969E2): inactive: -0.06.
Turning to SCARB2 (UniProt Q14108), the log2 fold change was inactive: 0.067.
With SCAP (UniProt Q12770), the log2 fold change is inactive: 0.022.
On the same count and under the same terms, the same measure for SEC24D isoform 2 (UniProt O94855): inactive: -0.062; for RRP15 (UniProt Q9Y3B9): inactive: 0.051; for SBF1 isoform 4 (UniProt O95248): inactive: -0.186.
Same read-out and setting: then SARG (UniProt Q9BW04), with inactive: 0.016.
Still for that read-out and setting: then SAR1A (UniProt Q9NR31), with inactive: 0.005; and S100A11 (UniProt P31949), with inactive: 0.077.
Regarding SAP30BP (UniProt Q9UHR5), the log2 fold change is inactive: 0.
Still for that read-out and setting: then SAR1B (UniProt Q9Y6B6), with inactive: -0.097.

Compound in another assay: Cc1ncc(-c2ccnc(Nc3ccc(S(C)(=O)=O)cc3)n2)n1C(C)C
The description is as above. The gist of the method:
as §1
Take SCFD2 (UniProt Q8WU76): the log2 fold change was inactive: 0.02.
As to SCARB1 isoform 2 (UniProt Q8WTV0), the log2 fold change was inactive: -0.005.
As for RWDD1 (UniProt Q9H446), the log2 fold change is inactive: -0.003.
As for SCIN (UniProt Q9Y6U3), the log2 fold change is inactive: 0.027.
The same measure, in the same setting: the same measure for SDF4 (UniProt Q9BRK5): inactive: 0.045; for RYBP (UniProt Q8N488): inactive: -0.039; for SCO1 (UniProt O75880): inactive: -0.039.
Same read-out and setting: then SACS (UniProt Q9NZJ4), with inactive: -0.05; and RTRAF (UniProt Q9Y224), with inactive: -0.011; and SCYL1 (UniProt Q96KG9), with inactive: 0.015.
For the target S100A6 (UniProt P06703), the log2 fold change was inactive: -0.023.
Take SDHA (UniProt P31040): the log2 fold change was inactive: -0.041.
The same measure, in the same setting: then RSBN1L (UniProt Q6PCB5), with inactive: -0.084; and RUVBL1 (UniProt Q9Y265), with inactive: 0.006; and SDHAF3 (UniProt Q9NRP4), with inactive: -0.034.
In the case of SBNO1 (UniProt A3KN83), the log2 fold change is inactive: 0.022.
Consider SCLY (UniProt Q96I15), for which the log2 fold change is inactive: -0.02.
For S100P (UniProt P25815), the log2 fold change was inactive: -0.006.
Still for that read-out and setting: then SCP2 (UniProt P22307), with inactive: -0.027; and SCAMP4 (UniProt Q969E2), with inactive: -0.003.
On to SCARB2 (UniProt Q14108), for which the log2 fold change was inactive: -0.006.
With SCAP (UniProt Q12770), the log2 fold change was inactive: 0.047.
In the case of SEC24D isoform 2 (UniProt O94855), the log2 fold change is inactive: -0.036.
Same read-out and setting: then RRP15 (UniProt Q9Y3B9), with inactive: -0.055; and SBF1 isoform 4 (UniProt O95248), with inactive: -0.117.
On to SARG (UniProt Q9BW04), for which the log2 fold change was inactive: -0.051.
With SAR1A (UniProt Q9NR31), the log2 fold change is inactive: 0.112.
For S100A11 (UniProt P31949), the log2 fold change was inactive: -0.013.
Turning to SAP30BP (UniProt Q9UHR5), the log2 fold change is inactive: 0.02.
Regarding SAR1B (UniProt Q9Y6B6), the log2 fold change was inactive: 0.065.
